The subject of the assay is HEK293T (UBE3A T485A transfected, BAR Wnt reporter). Put plainly: Renilla luciferase signal (cell health) relative to plate median (fold (linear ratio)); higher = higher Renilla signal. Conditions: 24 h. Summed up:
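Chemicals were robotically dosed at 0.01–100 uM for 24 h onto HEK293T cells, starting four hours after transfection with a BAR firefly luciferase Wnt reporter, TK-Renilla and an expression plasmid. The cells had been plated at 4500 cells/well in DMEM with 10% FBS at 37°C and 5% CO2. Following a Dual-Glo luciferase readout, the firefly/Renilla ratio served as the Wnt activity measure and raw Renilla as the cell health measure, both median-centred on each plate. Each value is the mean of four biological replicates.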

Most of the highest values are listed elsewhere, so they are rarer here than in the full data.

Take `O=C(c1ccccc1)c1ccccc1` [Benzophenone]: the Renilla luciferase signal reads like this: (concentration: 0.1 uM) 0.9; (concentration: 1 uM) 0.806; (concentration: 10 uM) 0.912; (concentration: 100 uM) 1.01.
